Measurements published in patent US20260191954A1, “COMPOSITIONS AND METHODS FOR NEOADJUVANT TREATMENT IN CANCER” (INNATE PHARMA, priority 2022, published 2026).
These are yes or no findings as the source states them, for the method shown. Some binding calls cover weakened binding; strength is not graded here.

Target: T1, soluble CD39 in samples from human patients (human) (UniProt P49961)
T1 sequence: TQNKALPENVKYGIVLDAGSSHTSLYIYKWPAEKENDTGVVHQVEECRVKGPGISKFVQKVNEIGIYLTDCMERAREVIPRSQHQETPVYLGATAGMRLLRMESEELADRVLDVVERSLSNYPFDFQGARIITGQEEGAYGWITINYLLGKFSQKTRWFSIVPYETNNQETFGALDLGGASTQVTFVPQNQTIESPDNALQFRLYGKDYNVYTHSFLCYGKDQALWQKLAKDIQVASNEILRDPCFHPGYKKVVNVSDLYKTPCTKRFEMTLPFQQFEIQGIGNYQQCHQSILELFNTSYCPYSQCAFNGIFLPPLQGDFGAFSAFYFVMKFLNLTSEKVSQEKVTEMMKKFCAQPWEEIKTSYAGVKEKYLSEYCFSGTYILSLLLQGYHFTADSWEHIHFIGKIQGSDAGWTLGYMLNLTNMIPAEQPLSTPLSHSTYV
Assay: free soluble CD39 sandwich ELISA on patients' samples (capture antibody competes with IPH5201)

binding: binds
B1: IPH5201 (humanized anti-CD39 antibody having the respective heavy and light chain amino acid sequences of SEQ ID NOS: 10 and 11) (antibody, human IgG1, kappa, V domains shown)
VH: QVQLVQSGAEVKKPGASVKVSCKASGYTFTDYNMHWVRQAPGQRLEWIGYIVPLNGGSTFNQKFKGRATITVDTSARTAYMELSSLRSEDTAVYYCARGGTRFAYWGQGTLVTVSS
VL: DIVMTQSPDSLAVSLGERATINCRASESVDNFGVSFMYWFQQKPGQPPKLLIYGASNQGSGVPDRFSGSGSGTDFTLTISSLQAEDVAVYYCQQTKEVPYTFGGGTKVEIKR
